Results reported in US20030181362A1, “Receptor” (priority 2000, published 2003).
No constants are given. Whether binding was seen depends on the method and setting. Binding can be weak; no strength is given.

How the values were obtained:
[1] = molecular target: HuTORE (putative human homologue of TORE) (human); assay: ligand blot of THP-1 lysate with radiolabelled C2 (FIG. 10B)
[2] = molecular target: HuTORE (putative human homologue of TORE) (human); assay: ligand blot of THP-1 total protein lysate (non-reducing SDS-PAGE) with I125-labelled C2

B1: human complement protein C2 (ligand, UniProt P06681 21-752, looked up)
chain: APSCPQNVNISGGTFTLSHGWAPGSLLTYSCPQGLYPSPASRLCKSSGQWQTPGATRSLSKAVCKPVRCPAPVSFENGIYTPRLGSYPVGGNVSFECEDGFILRGSPVRQCRPNGMWDGETAVCDNGAGHCPNPGISLGAVRTGFRFGHGDKVRYRCSSNLVLTGSSERECQGNGVWSGTEPICRQPYSYDFPEDVAPALGTSFSHMLGATNPTQKTKESLGRKIQIQRSGHLNLYLLLDCSQSVSENDFLIFKESASLMVDRIFSFEINVSVAIITFASEPKVLMSVLNDNSRDMTEVISSLENANYKDHENGTGTNTYAALNSVYLMMNNQMRLLGMETMAWQEIRHAIILLTDGKSNMGGSPKTAVDHIREILNINQKRNDYLDIYAIGVGKLDVDWRELNELGSKKDGERHAFILQDTKALHQVFEHMLDVSKLTDTICGVGNMSANASDQERTPWHVTIKPKSQETCRGALISDQWVLTAAHCFRDGNDHSLWRVNVGDPKSQWGKEFLIEKAVISPGFDVFAKKNQGILEFYGDDIALLKLAQKVKMSTHARPICLPCTMEANLALRRPQGSTCRDHENELLNKQSVPAHFVALNGSKLNINLKMGVEWTSCAEVVSQEKTMFPNLTDVREVVTDQFLCSGTQEDESPCKGESGGAVFLERRFRFFQVGLVSWGLYNPCLGSADKNSRKRAPRSKVPPPRDFHINLFRMQPWLRQHLGDVLNFLPL
- binding [1]: binds
- binding [2]: binds
